Measurements from PubChem BioAssay AID504467 (National Center for Advancing Translational Sciences (NCATS), 2011).
Out of some 330,000 compounds screened, about 7,700 (2.3%) were called active. Inconclusive means that the source gave no clear call. Such entries were picked first, then a sample of the others. Calls come from the whole dose curve; as a rule, active = well fitted inhibition curve with a large enough effect; inconclusive = small, poorly fitted or top-dose-only effect, or effect the other way; inactive = flat fitted curve, though single readings scatter. Potencies of inconclusive entries are doubtful fits and often do not repeat.

experiment: qHTS screen for small molecules that inhibit ELG1-dependent DNA repair in human embryonic kidney (HEK293T) cells expressing luciferase-tagged ELG1; settings: HEK293T ELG1-luciferase reporter, luminescence, 16 h, DNA damage induced by 5-fluorouridine; series mostly up to 46.1 µM; note: nearly all actives have a fitted effect of over 55% in size
How it was run: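 DMSO vehicle served as the neutral condition. Each well held 2,000 cells given 5-fluorouridine plus compound; after 16 hr at 37 °C/5% CO2, ONE-Glo was added and luciferase measured 30 min later.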
Potency is the fitted concentration of half-maximal effect.

Compound	Potency
CC(C)c1ccc(OCc2nc(-c3ccccn3)no2)c(Br)c1	inconclusive: 1.84 µM [activator, partial curve]
Cc1ccc(SCC(=O)OCC(=O)N(C)CC(=O)Nc2ccccc2Cl)cc1C	inactive
CCN(C(=O)COC(=O)c1cncc(Br)c1)C1CCS(=O)(=O)C1 (stereo not given)	inactive
Cc1c(C(=O)N2CCCC2)sc(NC(=O)c2cccc(Cl)c2)c1C#N	inconclusive: 23.1 µM [inhibitor, partial curve, poor fit]
C=CCn1c(SCC(=O)c2[nH]c(C)c(C(=O)OC)c2C)nc2scc(-c3ccc(OC)c(OC)c3)c2c1=O	inactive
Nc1nonc1NN=C1CCCCC1	inconclusive: 25.9 µM [activator, partial curve]
CC(Oc1ccc2ccc(=O)oc2c1)C(=O)c1ccccc1 (stereo not given)	inactive
CCOC(=O)N1CCN(C(=O)c2ccc(NS(=O)(=O)c3ccc(F)cc3)cc2)CC1	inconclusive: 29.1 µM [inhibitor, single point]
COc1ccc(-c2cc(C)nc3c(-c4ccccc4)cnn23)cc1	inconclusive: 2.31 µM [activator, partial curve]
O=c1[nH]c(C2CCCN(S(=O)(=O)c3ccccc3)C2)nc2c1nnn2Cc1ccccc1F (stereo not given)	inconclusive: 20.6 µM [inhibitor, single point]
c1ccc2cc(CCO[C@H]3CCCCO3)ncc2c1	inconclusive: 1.83 µM [activator, partial curve]
O=C(/C(=C(\O)c1ccccc1)c1ncc[nH]1)c1ccccc1	inactive
NNC(=O)/C(=C\c1ccco1)NC(=O)c1ccco1	inconclusive: 0.355 µM [activator, partial curve, poor fit]
COC(=O)c1c(C)oc2ccc(N(C(=O)c3ccncc3)S(=O)(=O)c3ccc4ccccc4c3)cc12	inactive
CC(=O)Nc1cccc(NC(=O)CSc2nnnn2-c2ccc3c(c2)OCO3)c1	inactive
CCCC(C(=O)NCCC(C)C)N(Cc1ccccc1)C(=O)c1snc(C(N)=O)c1N (stereo not given)	inconclusive: 23.1 µM [inhibitor, single point]
CCOCCCNC(=O)Cn1cnc2sc(C)c(S(=O)(=O)N3CCN(c4ncccn4)CC3)c2c1=O	inactive
CCCCOC(=O)c1ccc(O)cc1	inconclusive: 23.1 µM [activator, single point]
O=C1ON=C(c2cccc([N+](=O)[O-])c2)/C1=C/c1ccc(O)cc1	inconclusive: 20.6 µM [activator, partial curve]
CCOc1ccccc1C(=O)OCC(=O)NCCNC(=O)COC(=O)c1ccccc1OCC	inactive
CC(C)N(C(=O)Cn1cc(S(=O)(=O)CC(=O)N2CCOCC2)c2ccccc21)C(C)C	inconclusive: 6.51 µM [inhibitor, partial curve, poor fit]
CC(=O)Nc1ccc(NC(=O)C2CC(=O)N(Cc3ccccc3)C2)cc1 (stereo not given)	inactive
Cc1ccc(C)c(S(=O)(=O)N2CCN(C(=O)c3ccc(OCc4c(C)noc4C)cc3)CC2)c1	active: 16.4 µM
Cn1nc(C(=O)NC2CCCC2)c2ccccc2c1=O	inconclusive: 18.3 µM [activator, single point]

In the list so far, these contain an aryl methoxy group:
Compound	Potency
C=CCn1c(SCC(=O)c2[nH]c(C)c(C(=O)OC)c2C)nc2scc(-c3ccc(OC)c(OC)c3)c2c1=O	inactive
COc1ccc(-c2cc(C)nc3c(-c4ccccc4)cnn23)cc1	inconclusive: 2.31 µM [activator, partial curve]

Exported with bars between the fields: part of the list above
Compound | Potency
O=C(/C(=C(\O)c1ccccc1)c1ncc[nH]1)c1ccccc1 | inactive
CCOCCCNC(=O)Cn1cnc2sc(C)c(S(=O)(=O)N3CCN(c4ncccn4)CC3)c2c1=O | inactive

The list continues.

Compound	Potency
N=c1cc(C2(O)CCCCC2)n2c(nc3ccccc32)s1	inconclusive: 0.82 µM [activator, partial curve]
CCc1nnc(SCC(=O)Nc2ccccc2)nc1CC	inactive
Cc1ccn(-c2ccc(NC(=O)c3cccs3)cc2)n1	inconclusive: 2.31 µM [activator, partial curve]
O=C(N/N=C/c1cc2c(cc1Br)OCO2)C1COc2ccccc2O1 (stereo not given)	inconclusive: 11.6 µM [activator, partial curve, poor fit]
Cc1noc(C)c1COc1ccccc1C(=O)N1CCN(c2cccc(C(F)(F)F)c2)CC1	inactive
Cc1ccccc1NC(=O)CN(C)S(=O)(=O)c1cccs1	inconclusive: 0.146 µM [inhibitor, full curve, poor fit]
CCOc1ccc(OCC)c(-c2c(=O)n(OCc3ccc(Cl)cc3)c3ccccc3[n+]2[O-])c1	inconclusive: 20.6 µM [inhibitor, single point]
CCOP(=O)(OCC)C(Nc1ccccn1)c1ccccc1 (stereo not given)	inconclusive: 23.1 µM [activator, partial curve, poor fit]
C[C@H](CO)N1C[C@H](C)[C@@H](CN(C)S(=O)(=O)c2cn(C)cn2)Oc2ccc(NC(=O)NC3CCCCC3)cc2C1=O	inactive
COc1ccc(CCNC(=O)COc2ccc(S(=O)(=O)NC(C)C)cc2Cl)cc1OC	inconclusive: 29.1 µM [inhibitor, single point]
O=C(C1=C[C@@H](C2CCCCC2)C[C@@H](OCc2ccc(CO)cc2)O1)N1CCN(Cc2ccccc2)CC1	inconclusive: 29.1 µM [inhibitor, single point]
Cc1ccc(OCCCCN(C)Cc2ccccc2)c(Br)c1	inactive
N#C/C(=N/Nc1ccc([N+](=O)[O-])cc1)C(=N)N1CCCCC1	inconclusive: 2.06 µM [activator, partial curve]
Cc1c(C(=O)OCC2CCCO2)[nH]c2c1C(=O)CC(c1ccco1)C2 (stereo not given)	inconclusive: 5.8 µM [inhibitor, partial curve, poor fit]
Cc1c(C(=O)Nc2ccc(Cl)cc2)c2ccccn2c1CCc1ccncc1	inconclusive: 4.11 µM [activator, single point]
c1ccc(CN2CCC3(CC2)Nc2ccccc2S3)cc1	inconclusive: 29.1 µM [inhibitor, single point]
CCS(=O)(=O)c1ccc(OC)c(N=Nc2ccc(O)c3ncccc23)c1	inconclusive: 4.61 µM [inhibitor, single point]
O=C(CCc1nc2ccccc2[nH]c1=O)N/N=C/c1ccccc1	inactive
O=C(N/C=N/OCc1cccc(C(F)(F)F)c1)N1OC[C@@H]2COc3ccc4ccccc4c3[C@@H]21	inconclusive: 16.4 µM [inhibitor, single point]
O=C(NC1CC(=O)N(c2cccc(F)c2)C1)N1CCN(C(=O)c2ccco2)CC1 (stereo not given)	inactive
Cc1ccc(C(=O)NCCNC(=O)COc2ccc(Cl)cc2)cn1	inactive
COc1ccc(/C=C/C(=O)C2CC2)cc1COc1cccc(C)c1C	inconclusive: 29.1 µM [inhibitor, single point]
O=C(O)CNc1ccc(S(=O)(=O)C(F)(F)F)cc1[N+](=O)[O-]	inactive
Cc1cc(C)nc(N/N=C/C=C/c2ccccc2)n1	inconclusive: 23.1 µM [activator, single point]

Compound	Potency
COc1ccc(OC)c(NC(=O)CCc2nnc3ccc(NCc4ccco4)nn23)c1	inactive
COc1ccccc1N1C(=NC(=O)CCc2ccccc2)SC2CS(=O)(=O)CC21 (stereo not given)	inactive
O=C1CN(C(=O)CSc2nc(-c3ccccc3)cs2)c2ccccc2N1	inconclusive: 25.9 µM [inhibitor, single point]
CCOC(=O)c1c(C)oc2c1c(C(c1ccncc1)N1CCOCC1)c(O)c1ccccc12 (stereo not given)	inconclusive: 25.9 µM [activator, single point]
Cc1ccc2[nH]c(-c3ccccc3)cc(=O)c2c1	inconclusive: 3.26 µM [activator, partial curve]
Nc1nc(Nc2ccccc2F)sc1C(=O)c1ccccc1	inconclusive: 1.46 µM [activator, partial curve]
COC(=O)c1c(-c2ccc(OC)c(OC)c2)csc1N	inconclusive: 18.4 µM [inhibitor, single point]
CCn1nc(C(=O)NCC2COc3ccccc3O2)c2ccccc2c1=O (stereo not given)	inconclusive: 23.1 µM [inhibitor, single point]
CC(=O)c1ccc(-c2ccc(C(=O)N3CCCc4ccccc43)o2)cc1	inconclusive: 29.1 µM [inhibitor, single point]
CCC(=O)N1CCN(c2ccccc2NC(=O)c2ccc([N+](=O)[O-])o2)CC1	inconclusive: 11.6 µM [inhibitor, partial curve]
CCN1C(=O)C(CC(=O)Nc2ccc(OC)cc2)N(CCCN2CCN(c3ccc(F)cc3)CC2)C1=S (stereo not given)	inconclusive: 29.1 µM [inhibitor, partial curve, poor fit]
COc1ccccc1/C=C/C(=O)OCCN1CCOCC1	inconclusive: 20.6 µM [activator, single point]
Cc1ccc(S(=O)(=O)Nc2nc3ccccc3nc2NCc2ccc3c(c2)OCO3)cc1C	inactive
COc1ccccc1-c1nc2cc3ccccc3cc2nc1-c1ccccc1OC	active: 20.6 µM
C=CCOc1ccccc1CNc1ccc2[nH]c(=O)[nH]c2c1	inconclusive: 6.51 µM [inhibitor, partial curve]
O=C(CNc1cccc2ccccc12)c1ccc([N+](=O)[O-])cc1	inconclusive: 23.1 µM [activator, partial curve, poor fit]
Cc1ccccc1CNC(=O)Nc1cccs1	inconclusive: 20.6 µM [activator, partial curve]
CCNC(=O)CCSc1nc(C)cc(C)n1	inactive
COCCCNC(=O)C(=O)NC1CCCCCC1	inconclusive: 16.4 µM [activator, single point]
CCCCNC(=O)CSc1nc2cc3c(cc2c(=O)n1Cc1ccco1)OCO3	inconclusive: 16.4 µM [inhibitor, single point]
O=c1cc[nH]c2ccc(OC(F)(F)F)cc12	inactive
COC(=O)c1ccc2c(c1)N(C)CCS2	inconclusive: 23.1 µM [activator, single point]
